Laboratory results: paper PMC9889334
These are yes or no findings as the source states them, for the method shown. Some results given as binding are weak or reduced against the parent protein; the word gives no strength. Where a sequence is shown, tags or fusion partners need not be part of it.

The chains behind the UniProt entries cited, without tags or fusion partners.
UniProt Q9UXT7: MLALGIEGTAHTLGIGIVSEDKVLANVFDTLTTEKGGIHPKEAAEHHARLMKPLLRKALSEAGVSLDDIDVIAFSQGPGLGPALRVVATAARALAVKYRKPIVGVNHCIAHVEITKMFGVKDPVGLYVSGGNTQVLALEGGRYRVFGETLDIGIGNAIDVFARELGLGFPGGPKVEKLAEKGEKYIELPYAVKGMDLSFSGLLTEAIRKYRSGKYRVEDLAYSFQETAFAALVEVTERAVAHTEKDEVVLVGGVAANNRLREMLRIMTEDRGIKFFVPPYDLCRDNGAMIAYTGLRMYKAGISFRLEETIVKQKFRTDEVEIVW

Target: T1, PaPcc1 with C-terminal hexa-histidine tag (Pyrococcus abyssi Pcc1) (Pyrococcus abyssi) (UniProt Q9V1Z9)
T1 sequence: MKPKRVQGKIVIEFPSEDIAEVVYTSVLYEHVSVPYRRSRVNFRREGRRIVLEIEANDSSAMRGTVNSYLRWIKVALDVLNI
Experiment: co-purification (Ni-NTA affinity chromatography, then size exclusion chromatography); E. coli cells expressing untagged subunits and His6-tagged PaPcc1 or PaPcc2 mixed and lysed together; lysate heated at 65 °C; captured by the His6 tag on Ni-NTA at room temperature (20 mM Tris-HCl pH 8, 500 mM NaCl, 5 mM ß-mercaptoethanol, 10% glycerol), then SEC

binding: binds
Substance: PaKae1 (Pyrococcus abyssi Kae1) (from UniProt Q9UXT7 1-324) (enzyme)
